Data source: PubChem BioAssay AID743454 (Peter MacCallum Cancer Centre, 2014)
Aim: 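Genes whose loss kills vorinostat-resistant colon cancer cells under vorinostat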 (primary screen). Cells: human HCT116-VR colon cancer cells, selected for vorinostat resistance. Knock-down reagent: siRNA pool against human genes, 40 nM siRNA pool. Timing: vorinostat for 24 h, read-out about 72 h after transfection. Challenge: vorinostat at 2.5 µM final. Detection: 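Cell viability by CellTiter-Fluor and caspase 3/7 activity by luminescence, each scaled to mock wells per plate, duplicates averaged, then robust z-scored over all plates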. Scale: viability robust z-score: higher = more viable cells than screen typical; caspase robust z-score: higher = more caspase 3/7 activity than screen typical. Active means: 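Hits are knock-downs in viability class RV1/RV2 or caspase class CA1/CA2, excluding ones that killed cells in the no-drug cell-count arm; hits then retested with single siRNAs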.
The deposit covers about 18,000 reagents; below is an unselected part. 450 of all reagents (2.5%) were called active. 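Single biological run; no consistent viability z cut-off exists, so the class columns, not z-scores, define the calls.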 Reagent sequences are not shown.

gene knocked down	viability hit class	caspase hit class	viability robust z-score	caspase robust z-score	outcome
CLIC1	no change	no change	-1.78	1.03	inactive
REL	no change	no change	1.06	-0.32	inactive
CTSS	no change	no change	0.47	-0.36	inactive
IZUMO1R	no change	no change	-0.13	-0.74	inactive
CPTP	no change	no change	-0.43	1.88	inactive
NES	no change	no change	0.04	-1.06	inactive
MAB21L4	no change	no change	0.86	3.46	inactive
CCDC34	no change	no change	-2.63	0.58	inactive
FAM171A1	no change	no change	0.77	-0.24	inactive
KCNK15	no change	no change	-0.66	4.36	inactive
SLC29A4	no change	no change	0.74	2.05	inactive
SETD7	no change	no change	1.12	0.12	inactive
PAQR9	no change	no change	-0.8	4.66	inactive
TNS2	no change	no change	0.99	3.97	inactive
UBP1	no change	no change	-0.74	1.25	inactive
PCDH7	no change	no change	-0.84	-0.6	inactive
ZNF792	no change	no change	0.44	-0.26	inactive
RNF2	no change	no change	-0.1	0.04	inactive
BPIFB4	no change	no change	0.2	2.04	inactive
PRAP1	no change	no change	-0.86	-0.03	inactive
PUS1	no change	no change	1.44	-1.08	inactive
FBXO28	no change	no change	0.03	0.97	inactive
BPNT2	no change	no change	-0.11	1.3	inactive
CXorf58	no change	no change	-1	-1.49	inactive

Single entries from the list.
Entry for SLC29A4 in “viability robust z-score”: 0.74
Result of CCDC34 under “caspase robust z-score”: 0.58
MAB21L4, viability robust z-score: 0.86
Under “caspase hit class”, FAM171A1 is entered as no change
Under “viability robust z-score”, PCDH7 has -0.84

The listing continues.
gene knocked down	viability hit class	caspase hit class	viability robust z-score	caspase robust z-score	outcome
CPXM2	no change	no change	0.02	-0.03	inactive
ZBTB40	no change	no change	-0.58	0.29	inactive
PTGFR	no change	no change	-0.91	0.94	inactive
NPTX1	no change	no change	-1.27	0.68	inactive
DENND2D	no change	no change	0.64	0.53	inactive
BRWD3	no change	no change	0.78	-0.78	inactive
STARD6	no change	no change	0.65	0.14	inactive
TIAM1	no change	no change	0.06	-0.92	inactive
TBX6	no change	no change	-0.65	0.62	inactive
GSDMA	no change	no change	-0.28	1.48	inactive
SLC35F5	no change	no change	0.82	-1.27	inactive
ZBTB26	no change	no change	0.87	-0.51	inactive
SGIP1	no change	no change	0.96	0.02	inactive
BNIP5	no change	no change	0.12	0.18	inactive
SHCBP1L	no change	no change	-0.12	-0.56	inactive
